The results in this text go back to patent US12329799B2, “Peptidyl inhibitors of calcineurin-NFAT interaction” (Ohio State Innovation Foundation, priority 2018, dated 2025).

A word on the Papp A→B: it is how fast a substance crosses the layer from the apical side. The low end stands for poor permeation, the high end for ready permeation.

A short description of the data set: Caco-2 permeability assay. The format is in vitro ADME. Particulars: human, Caco-2, pH 7.4, N = 2. The method, then: Caco-2 permeability assay. To assay the permeability of test compounds by Caco-2 cell model, Caco-2 cells were cultured to confluency before being trypsinized and seeded onto filter transwell inserts at a density of 30,000 cells/well in DMEM medium. Cells were cultured in a humidified atmosphere with 5% CO2 at 37° C. After overnight attachment, cell medium was replaced with fresh medium at both apical and basolateral sides every other day. The cell monolayers are ready for the assay 20 days post seeding. […] The dosing solution at 10 μM was obtained by diluting 10 mM stock solution in HBSS medium (pH 7.4, 25 mM HEPES) freshly before the assay. Terfenadine (25 ng/mL) and Tolbutamide (50 ng/mL) were added into dosing solution as internal standards. […] The culture medium from either the basolateral side (plate B) or apical side (plate A) were aspirated and then rinsed with HBSS medium once. Afterwards, the dosing medium was added to either basolateral or apical side. […] Samples were quenched with acetonitrile/methanol (1:1 v/v), centrifuged, and analyzed on a Shimadzu reversed-phase HPLC and Sciex API4500 Q trap instrument.
Permeability parameters were calculated using the following equations and shown in Table 10: Papp=(Conc.receiver,90 min*Volumereceiver)/(Time*Membrane Area*Conc.donor,0 min) Efflux Ratio=Papp[B to A]/Papp[A to B]
On the technique in general: Passage across Caco-2 layers is used to estimate intestinal permeability.

`CC(C)NCC(O)COc1cccc2ccccc12` (stereo not shown) [Propranolol] had a Papp A→B at 90 min, 10 μM of 35 ×10⁻⁶ cm/s.
